Source: the supplement of paper PMC10735217
Structures can show the parent of a compound that is named as a salt. The list shows a part of the results. Repeats in this data set agree poorly, so a single value says little.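 Human kidney-derived cells stably carry a construct in which eight TEAD-binding elements drive luciferase, measured by luminescence in a drug-repurposing library screen. A hit is any compound whose signal exceeds the plate mean by more than five robust Z scores.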

System: HEK293A TEAD-LUC reporter
Assay: TEAD-luciferase reporter activity (YAP activation), robust Z score vs plate; higher = stronger YAP/TEAD activation
Conditions: 24 h

Row | SMILES | TEAD-luciferase reporter activity (compound concentration: 200 nM) | TEAD-luciferase reporter activity (compound concentration: 2 uM) | TEAD-luciferase reporter activity (compound concentration: 10 uM)
1 | CC(C)(C)c1cc(/C=C2\CCOC2=O)cc(C(C)(C)C)c1O | inactive: -2.22 | inactive: -0.72 | inactive: -0.307
2 | O=C1N=C(NCc2cccs2)S/C1=C\c1ccc2ncccc2c1 [Cdk1 Inhibitor IV, RO-3306] | inactive: -0.571 |  | inactive: 1.88
3 | O=c1c2ccccc2c(Cc2ccc(F)cc2)nn1C1CCCN(CCc2ccccc2)CC1 (centres undefined) | inactive: -2.6 | inactive: -0.341 | inactive: 4.6
4 | [Ba+2] | inactive: -0.411 |  | inactive: -0.741
5 | COc1cc(NC(=O)CCN2CCC(OC(=O)Nc3ccccc3-c3ccccc3)CC2)c(Cl)cc1CNC[C@H](O)c1ccc(O)c2[nH]c(=O)ccc12 [Batefenterol] | inactive: -1.45 | inactive: 2.09 | inactive: 0.112
6 | Cc1ccc(C(=O)Oc2ccc(C(CN(C)C)C3(O)CCCCC3)cc2)cc1 (centres undefined) | inactive: 0.166 | inactive: -1.05 | inactive: -0.784
7 | CC(C)OC(=O)CCC/C=C\C[C@H]1C(=O)C=C[C@@H]1/C=C/[C@@H](O)CCc1ccccc1 [Posaraprost] | inactive: -1.59 | inactive: 1.48 | inactive: 1.84
8 | CC/C(=C(\c1ccc(O)cc1)c1ccc(OCCN(C)C)cc1)c1ccccc1 [Afimoxifene] | inactive: -0.595 | inactive: -0.585 | inactive: 0.825
9 | CC1(C)C=C(c2cccc[n+]2[O-])c2cc(C#N)ccc2O1 | inactive: 0.371 | inactive: -1.93 | inactive: 0.28
10 | O=C(NCc1ccccc1)OCCO | inactive: -1.3 | inactive: -0.508 | inactive: 2.21
11 | COc1cccc(C(=O)N2C3CCCC2CC(=O)C3)c1 | inactive: -1.71 |  | inactive: -0.71
12 | COc1cc2c(cc1OC)-c1cc(NCC(C)C)nc(=O)n1CC2 | inactive: 1.98 | inactive: -1.2 | inactive: 0.806
13 | C=CC(=O)N1CCC[C@@H](n2nc(-c3ccc(Oc4ccccc4)cc3)c3c(N)ncnc32)C1 [ibrutinib] | inactive: -0.996 | inactive: -0.137 | inactive: -0.328
14 | CC(C)(OCc1nn(Cc2ccccc2)c2ccccc12)C(=O)O [Bindarit] | inactive: 1.28 | inactive: 0.722 | inactive: -1.91
15 | O=C1NCc2ccccc2CC12CCCN2Cc1ccc(O)cc1 (centres undefined) | inactive: 1.13 |  | inactive: -0.0388
16 | C=CCOc1ccc(CC(=O)O)cc1Cl [alclofenac] | inactive: 0.383 | inactive: -1.83 | inactive: 0.919
17 | OC[C@H]1O[C@@H](n2cnc3c(NCc4ccccc4)ncnc32)[C@H](O)[C@@H]1O | inactive: -0.642 | inactive: 1.8 | inactive: -0.334
18 | CC[C@](NC(=O)[C@@H]1CCCN1)(C(=O)NCC(N)=O)c1ccccc1 | inactive: 0.471 | inactive: 0.343 | inactive: 0.417

Row | SMILES | TEAD-luciferase reporter activity (compound concentration: 200 nM) | TEAD-luciferase reporter activity (compound concentration: 2 uM) | TEAD-luciferase reporter activity (compound concentration: 10 uM)
19 | CC(C)[C@@H]1CC[C@@H](C)C[C@H]1C(=O)NC[C@@H](OCCN)c1ccccc1 [analog of D-3263] |  | inactive: 0.178 | 
20 | CC(C)[C@@H]1CC[C@@H](C)C[C@H]1C(=O)NC[C@@H](OCCN)c1ccccc1 | inactive: -1.82 |  | inactive: 2.3
21 | CC1(C)C(=O)Nc2cc3[nH]c(-c4ccncc4)nc3cc21 | inactive: 0.366 | inactive: -0.147 | inactive: 0.0753
22 | CNCCOC(=O)c1cc(OC)c2c(c1-c1c(C(=O)O)cc(OC)c3c1OCO3)OCO2 | inactive: 3.78 | inactive: -0.485 | inactive: -0.925
23 | Cc1ccc(CC(=O)N(C)[C@H](Cc2ccc3ccccc3c2)C(=O)N[C@@H]2CCCC[C@@H]2NC(=O)c2c[nH]c3ccccc23)cc1 | inactive: -1.39 | inactive: -1.19 | inactive: -0.813
24 | CC(C(=O)O)c1ccc(-c2ccccc2)c(F)c1 (centres undefined) [flurbiprofen SR] |  | inactive: -0.149 | 
25 | CC(C(=O)O)c1ccc(-c2ccccc2)c(F)c1 (centres undefined) [Flurbiprofen5104-49-4] | inactive: -0.24 |  | inactive: 0.833
26 | CNS(=O)(=O)CCc1ccc2[nH]cc(C3CCN(C)CC3)c2c1 [naratriptan] | inactive: -1.08 | inactive: -0.197 | inactive: -1.21
27 | CC(C)(C)c1ccc(C(O)CCCN2CCC(C(O)(c3ccccc3)c3ccccc3)CC2)cc1 (centres undefined) [terfenadine] | inactive: -1.24 | inactive: -0.618 | inactive: 0.463
28 | CCCS(=O)(=O)Nc1ccc(F)c(C(=O)c2c[nH]c3ncc(-c4ccc(Cl)cc4)cc23)c1F [Vemurafenib] | inactive: -0.121 | inactive: -1.66 | 
29 | COc1c(OCc2ccc(-c3ccccc3-c3nnn[nH]3)cc2)cc(C)nc1C | inactive: -1.49 | inactive: -0.541 | inactive: -0.176
30 | NS(=O)(=O)c1cc(C(=O)O)cc(N2CCCC2)c1Oc1ccccc1 [piretanide] | inactive: 0.596 | inactive: -0.888 | inactive: -1.69
31 | CCc1cccc(C)c1-n1c(=O)c2ccccc2n(C)c1=O | inactive: 0.399 | inactive: -1.86 | inactive: 0.553
32 | CC(C)=CCC/C(C)=C/CC/C(C)=C/C(=O)OCC(=O)[C@@]1(O)CC[C@H]2[C@@H]3CCC4=CC(=O)C=C[C@]4(C)[C@H]3[C@@H](O)C[C@@]21C | inactive: -0.846 | inactive: 0.485 | inactive: 0.903
33 | CN1N=C2CCN(C(=O)[C@@H](COCc3ccccc3)NC(=O)C(C)(C)N)CC2(Cc2ccccc2)C1=O (some centres undefined) | inactive: 2.7 | inactive: -0.717 | inactive: 0.943
34 | N=C(N)NCCC[C@H](NC(=O)[C@@H]1CCCN1C(=O)[C@H](CC(=O)O)NC(=O)[C@H](CO)NC(=O)[C@@H](N)CC(=O)O)C(=O)O | inactive: -0.228 | inactive: 0.633 | inactive: -0.608
35 | CN(C)C(=O)N[C@H]1CC[C@H](CCN2CCN(c3cccc(Cl)c3Cl)CC2)CC1 [cariprazine hydrochloride, prolonged-release] | inactive: -1.21 | inactive: -1.15 | inactive: -2.24
